37 molecules from PubChem BioAssay AID2685 (National Center for Advancing Translational Sciences (NCATS), 2010) can be followed below.

The structures appear in SMILES notation. Some of the results follow. Further columns of the screen follow, without active or inactive calls. The list favours compounds with an active or inconclusive main result. Potencies come from curve fits of mixed quality, noted in brackets.

The assay is described as follows: qHTS Assay for Lipid Storage Modulators in Drosophila S3 Cells.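 For cell number change: cells counted by Cell Tracker Red CMTPX staining in the red channel.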 To be noted: BODIPY lipid droplet fluorescence, 18-24 h; for cell number change: measured here: cell count max response, cells fed with added oleic acid. The essentials:
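Laser-scanning cytometry quantifies lipid droplet accumulation (500–530 nm total intensity; droplet/cell object ratio) in oleic acid-fed (400 uM added) Drosophila S3 cells treated with a concentration series. 20 uM Triacsin C defined 100% inhibition.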

The mark [1] stands for this setting: measured here: cell number channel AC50, cells fed with added oleic acid.
[2] abbreviates: measured here: lipid fluorescence (Fed channel) AC50, cells fed with added oleic acid.

Take `O=C(c1ccco1)N1CCN(Cc2cc(=O)c(OCc3ccccc3)co2)CC1`: the cell number change is -25%. The AC50 (usually the midpoint of the concentration-response curve, whichever way the signal moves) under setting [1] was 4.61 µM [falling, full curve, poor fit].

Turning to `O=C(CN1CCC(NC(=O)c2ccc(F)cc2)CC1)NCc1ccccc1F`, under setting [1], the AC50 is 0.651 µM [rising, full curve, poor fit].

With `CCOc1ccc(OCc2cccc(C(=O)N3CCCCCC3)c2)cc1`, the cell number change was -6.67%.

As for `CCCCC1(Cc2cccc([N+](=O)[O-])c2)C(=O)N(c2ccccc2)N(c2ccccc2)C1=O`, the cell number change is -94.7%. Further, the AC50 under setting [1] is 1.84 µM [rising, partial curve].

On to `Cc1ccc(S(=O)(=O)N2CCN(CC(=O)N/N=C\c3ccc(O)c(O)c3)CC2)cc1`, for which the cell number change was determined as 38.6%. In addition, the half-maximal activity concentration (AC50) under setting [1] was 18.4 µM [rising, partial curve, poor fit]. In addition, the AC50 under setting [2] was 29.1 µM [rising, single point].

For the molecule `CCC(C)N(C(=O)CSc1ccc(NC(C)=O)cc1)C1CCS(=O)(=O)C1` (configuration not stated), the cell number change was -29.5%. For the same molecule, under setting [1], the AC50 was 4.11 µM [falling, full curve, poor fit]. Further, the concentration at half-maximal activity (AC50) under setting [2] was 14.6 µM [falling, partial curve, poor fit].

Turning to `CC(Oc1ccc(Cl)cc1Cl)c1ccnc2nc(N3CCOCC3)nn12` (configuration not stated), the cell number change amounted to 112%.

Turning to `COc1ccc(NC(=O)CSCC(=O)Nc2sccc2C#N)cc1`, under setting [2], the concentration at half-maximal activity (AC50) was 2.59 µM [rising, partial curve].

Regarding `Cc1cccc(N2CCN(C(=O)c3c(C)nn(Cc4ccccc4Cl)c3C)CC2)c1C`, the AC50 under setting [1] was 6.51 µM [rising, single point] and the AC50 under setting [2] was 6.51 µM [rising, single point].

`CCCc1cc(=O)[nH]c(SCC(=O)NCCC2=CCCCC2)n1`: the cell number change came to 11.6%. Also, the AC50 under setting [2] was 3.66 µM [falling, single point].

With `COc1ccc(-n2c(=S)[nH]c3cc(C(=O)Nc4ccccc4OC)ccc3c2=O)c(OC)c1`, the cell number change worked out at 20.9%.

As to `Cc1ccc([N+](=O)[O-])cc1S(=O)(=O)Nc1ccc(C(=O)N2CCN(C(=O)c3ccco3)CC2)cc1`, the cell number change is -61.5%. Further, the AC50 under setting [1] was 7.31 µM [falling, partial curve]. Also, under setting [2], the concentration at half-maximal activity (AC50) was 0.206 µM [falling, full curve].

In the case of `O=C1CC(c2ccccc2)CC(=O)N1c1ccc(C(F)(F)F)cc1`, the cell number change is -52.9%. Moreover, the AC50 under setting [1] is 0.58 µM [falling, partial curve, poor fit].

Consider `Cn1c(=O)oc2cc(S(=O)(=O)NCCN3CCN(c4ccccc4)CC3)ccc21`, for which the cell number change was -35.5%. For the same molecule, the AC50 under setting [1] was 2.31 µM [falling, partial curve, poor fit]. In addition, the AC50 under setting [2] was 0.00411 µM [falling, full curve, poor fit].

On to `CCOC(=O)C(C)n1ncn2cccc2c1=O` (configuration not stated), for which the cell number change turned out to be 0.176%. Moreover, the AC50 under setting [2] was 0.651 µM [rising, single point].

In the case of `O=C(/C=C/Nc1ccccc1)c1ccc(Oc2ncccn2)cc1`, the cell number change was determined as 18.4%. In addition, the AC50 under setting [2] was 14.6 µM [rising, partial curve, poor fit].

With `COc1ccc(-c2nc(N)nc(C)c2Oc2ccccc2Br)c(O)c1`, the cell number change turned out to be 11.3%. The half-maximal activity concentration (AC50) under setting [1] was 5.17 µM [falling, partial curve]. For the same molecule, the AC50 under setting [2] is 6.51 µM [falling, full curve].

Regarding `COC(=O)/C=C(\C)NC(=O)c1ccccc1Cl`, the cell number change is -9.78%.

For `Cc1nn(CC(=O)OCC(=O)Nc2ccccc2[N+](=O)[O-])c(C)c1[N+](=O)[O-]`, the cell number change was determined as 23%. The AC50 under setting [2] was 0.00461 µM [falling, full curve, poor fit].

In the case of `O=C(NCc1ccc2c(c1)OCO2)c1ccc(N2C(=O)C3CCCCC3C2=O)cc1` (configuration not stated), the cell number change came out at 65.5%. For the same molecule, the AC50 under setting [1] was 23.1 µM [rising, single point].

On to `O=C(c1ccccc1F)N1C(=O)c2cccc3cccc1c23`, for which the cell number change was determined as 8.66%. In addition, the AC50 under setting [2] was 3.55 µM [rising, partial curve, poor fit].

For `CN1CCN(c2ccc(Cl)cc2NC(=O)CN2C(=O)NC(C)(c3ccccc3)C2=O)CC1` (configuration not stated), the AC50 under setting [2] is 6.51 µM [falling, single point].

Regarding `CC(=O)N1c2ccc(S(=O)(=O)N3CCCC(C(=O)NCc4ccc(Cl)cc4)C3)cc2CC1C` (configuration not stated), the cell number change is -33.8%. The AC50 under setting [1] was 4.61 µM [falling, partial curve]. Besides, the half-maximal activity concentration (AC50) under setting [2] was 29.1 µM [falling, single point].

In the case of `CN(C)C1(CNC(=O)C2CCN(S(=O)(=O)c3cccc(C(F)(F)F)c3)CC2)CCCCC1`, the cell number change amounted to 30%. The AC50 under setting [2] is 29.1 µM [rising, single point].

`Nc1nc(SCc2ccc(Cl)cc2Cl)n[nH]1`: the cell number change worked out at 22.5%. Under setting [1], the concentration at half-maximal activity (AC50) is 0.164 µM [rising, full curve, poor fit]. In addition, under setting [2], the AC50 was 0.13 µM [rising, full curve, poor fit].

With `CC(C)c1ccc(N2C=Nc3ccc(C(C)C)cc3C2)cc1`, the cell number change was -37.4%. In addition, the AC50 under setting [2] is 11.6 µM [falling, partial curve].

Take `N#CCCC(CCC#N)(CCC#N)c1cc[n+](CCc2ccccn2)cc1`: the cell number change is -23.4%. Under setting [2], the AC50 is 18.4 µM [falling, single point].

In the case of `Cc1ccc(C(=O)CCC(=O)N(C)CC(=O)Nc2c(Cl)cccc2Cl)cc1`, the cell number change was determined as 43%. Besides, the AC50 under setting [1] is 8.2 µM [rising, partial curve]. Besides, the half-maximal activity concentration (AC50) under setting [2] was 4.11 µM [rising, partial curve, poor fit].

Turning to `Cc1ccc(C(C)C)c(OCC(=O)N/N=C/C2CCCCC2)c1`, the AC50 under setting [1] was 6.51 µM [rising, single point].

For `CCOC(=O)C1=C(C)N=c2s/c(=C/c3ccc(OCC(=O)O)cc3)c(=O)n2C1c1ccc(OC)cc1OC` (configuration not stated), the AC50 under setting [2] was 23.1 µM [falling, single point].

As to `O=C(NCCN1CCOCC1)C1CC(=O)N(c2ccc(F)c(Cl)c2)C1` (configuration not stated), the AC50 under setting [2] is 0.58 µM [falling, single point].

In the case of `CC(=O)Nc1ccc(S(=O)(=O)NC(C)C(=O)OCCOc2ccc(F)cc2)cc1` (configuration not stated), the cell number change was -8.02%.

As for `O=C(Cc1ccccc1)N/N=C/c1cc(Br)cc(Cl)c1O`, the cell number change stood at 12.1%.

Consider `COc1ccc(-c2nnc(SCC(=O)NC3CC3)o2)c(OC)c1`, for which the cell number change is -68%. Further, the AC50 under setting [1] was 5.8 µM [falling, partial curve, poor fit].

Consider `CC12COC3(C(=O)Nc4ccc5ccccc5c4)CC1CCC32C` (configuration not stated), for which the cell number change was found to be 81.3%.

`O=C(CSc1nc(-c2ccccc2)cc(=O)[nH]1)NCc1ccc2c(c1)OCO2`: the cell number change worked out at 9.4%.

On to `COc1ccc(C(=O)N(Cc2ccccc2)c2cccc(C)c2)c(OC)c1OC`, for which the cell number change was found to be 27%.
